Publication PMC9371855
These are yes or no findings as the source states them, for the method shown. In cells and extracts the contact can be indirect. Some results given as binding are weak or reduced against the parent protein; the word gives no strength.

Sequences of proteins named here, by UniProt entry; tags and fusion partners are left off.
UniProt Q9Y572: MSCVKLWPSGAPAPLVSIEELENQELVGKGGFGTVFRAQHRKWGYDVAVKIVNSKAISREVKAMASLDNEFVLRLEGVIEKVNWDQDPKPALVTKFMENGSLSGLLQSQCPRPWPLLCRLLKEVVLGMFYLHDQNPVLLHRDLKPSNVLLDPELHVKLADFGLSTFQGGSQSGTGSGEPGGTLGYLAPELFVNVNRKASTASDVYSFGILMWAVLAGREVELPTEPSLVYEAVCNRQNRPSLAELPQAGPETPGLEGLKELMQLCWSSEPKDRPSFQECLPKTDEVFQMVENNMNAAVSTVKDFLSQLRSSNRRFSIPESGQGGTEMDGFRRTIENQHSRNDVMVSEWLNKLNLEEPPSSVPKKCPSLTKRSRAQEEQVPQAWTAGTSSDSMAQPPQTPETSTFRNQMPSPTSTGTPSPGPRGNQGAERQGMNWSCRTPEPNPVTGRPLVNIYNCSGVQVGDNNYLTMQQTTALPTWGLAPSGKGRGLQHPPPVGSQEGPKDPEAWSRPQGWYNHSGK

T1: Aurora kinase A (human (endogenous in PC3)) (UniProt O14965)
T1 sequence: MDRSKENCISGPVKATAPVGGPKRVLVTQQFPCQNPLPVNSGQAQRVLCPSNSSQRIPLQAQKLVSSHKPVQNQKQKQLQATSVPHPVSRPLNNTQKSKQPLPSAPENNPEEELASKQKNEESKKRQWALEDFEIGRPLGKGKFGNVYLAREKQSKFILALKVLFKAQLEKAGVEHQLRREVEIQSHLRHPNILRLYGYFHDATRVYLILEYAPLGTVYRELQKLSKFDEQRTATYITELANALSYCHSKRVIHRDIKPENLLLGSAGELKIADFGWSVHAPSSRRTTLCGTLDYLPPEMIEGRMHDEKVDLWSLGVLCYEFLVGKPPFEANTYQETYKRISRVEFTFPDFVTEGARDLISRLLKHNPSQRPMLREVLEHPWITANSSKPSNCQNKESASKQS

T2: receptor-interacting serine/threonine kinase 1 (human (endogenous in PC3)), Q13546
T2 chain: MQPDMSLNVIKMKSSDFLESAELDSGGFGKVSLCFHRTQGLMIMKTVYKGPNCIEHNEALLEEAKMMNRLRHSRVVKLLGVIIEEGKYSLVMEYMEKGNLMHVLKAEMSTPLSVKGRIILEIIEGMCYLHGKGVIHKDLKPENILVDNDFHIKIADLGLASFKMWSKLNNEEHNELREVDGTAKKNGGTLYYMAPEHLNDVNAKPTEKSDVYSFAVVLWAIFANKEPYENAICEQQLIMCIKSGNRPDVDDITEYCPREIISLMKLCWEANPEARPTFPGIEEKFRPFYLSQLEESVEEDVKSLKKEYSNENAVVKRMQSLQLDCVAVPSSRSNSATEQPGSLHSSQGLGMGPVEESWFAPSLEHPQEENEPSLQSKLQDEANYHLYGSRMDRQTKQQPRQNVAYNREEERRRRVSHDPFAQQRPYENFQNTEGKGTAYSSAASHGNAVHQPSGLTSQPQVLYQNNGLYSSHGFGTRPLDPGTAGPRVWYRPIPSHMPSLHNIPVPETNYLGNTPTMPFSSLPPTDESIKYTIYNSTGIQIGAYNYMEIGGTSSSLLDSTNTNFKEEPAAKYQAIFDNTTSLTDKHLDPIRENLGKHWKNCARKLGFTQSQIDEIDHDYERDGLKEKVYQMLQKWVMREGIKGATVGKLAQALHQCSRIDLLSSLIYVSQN

B1: mixed lineage kinase domain-like, Q8NB16 1-471 (protein)
chain: MENLKHIITLGQVIHKRCEEMKYCKKQCRRLGHRVLGLIKPLEMLQDQGKRSVPSEKLTTAMNRFKAALEEANGEIEKFSNRSNICRFLTASQDKILFKDVNRKLSDVWKELSLLLQVEQRMPVSPISQGASWAQEDQQDADEDRRAFQMLRRDNEKIEASLRRLEINMKEIKETLRQYLPPKCMQEIPQEQIKEIKKEQLSGSPWILLRENEVSTLYKGEYHRAPVAIKVFKKLQAGSIAIVRQTFNKEIKTMKKFESPNILRIFGICIDETVTPPQFSIVMEYCELGTLRELLDREKDLTLGKRMVLVLGAARGLYRLHHSEAPELHGKIRSSNFLVTQGYQVKLAGFELRKTQTSMSLGTTREKTDRVKSTAYLSPQELEDVFYQYDVKSEIYSFGIVLWEIATGDIPFQGCNSEKIRKLVAVKRQQEPLGEDCPSELREIIDECRAHDPSVRPSVDEILKKLSTFSK

Experiments:
Assay in all cases: co-IP; PC3 cells, with or without IDOAMP for 24 h, lysed in RIPA buffer; endogenous proteins precipitated with anti-Aurora kinase A or anti-RIPK1 antibody (IgG as control) and protein-A/G-agarose beads at 4°C; western blot
[1] = molecular target: T1, Aurora kinase A (human (endogenous in PC3))
[2] = molecular target: receptor-interacting serine/threonine kinase 1 (human (endogenous in PC3)) (UniProt Q13546)
[3] = molecular target: T2, receptor-interacting serine/threonine …; conditions: remark: other sources report otherwise

Molecule	binding [1]	binding [2]	binding [3]
receptor-interacting serine/threonine kinase 1 (from UniProt Q13546 1-671) (enzyme)	binds	–	–
receptor-interacting serine/threonine kinase 3 (from UniProt Q9Y572 1-518) (enzyme)	binds	binds	–
B1	–	–	binds
